Source: patent US5698564A, “Diphenyl disulfide compounds” (Nisshin Flour Milling Co., Ltd., priority 1994, dated 1997)
Some of these results come from one statement about several compounds together.

Test system: THP-1 cells
Experiment: cytotoxicity in THP-1 cells (Alamar Blue)
Assay type: cell-based, human
Conditions: at the concentration up to 50 μM, 24 hours, Alamar Blue 3 hours

With O=[N+]([O-])c1ccc(SSc2ccccc2-c2nc3ccccc3[nH]2)c([N+](=O)[O-])c1 [Compound 3] the cytotoxicity was “no cytotoxicity was found”.
